Test results reported in patent US20210214447A1.
No constants are given. Whether binding was seen depends on the method and setting. Some binding calls cover weakened binding; strength is not graded here. Values belong to the binder of their own block, whether it stands above or below them.

The chains behind the UniProt entries cited, without tags or fusion partners. Residues count along the entry.
UniProt P30530, residues 26-894: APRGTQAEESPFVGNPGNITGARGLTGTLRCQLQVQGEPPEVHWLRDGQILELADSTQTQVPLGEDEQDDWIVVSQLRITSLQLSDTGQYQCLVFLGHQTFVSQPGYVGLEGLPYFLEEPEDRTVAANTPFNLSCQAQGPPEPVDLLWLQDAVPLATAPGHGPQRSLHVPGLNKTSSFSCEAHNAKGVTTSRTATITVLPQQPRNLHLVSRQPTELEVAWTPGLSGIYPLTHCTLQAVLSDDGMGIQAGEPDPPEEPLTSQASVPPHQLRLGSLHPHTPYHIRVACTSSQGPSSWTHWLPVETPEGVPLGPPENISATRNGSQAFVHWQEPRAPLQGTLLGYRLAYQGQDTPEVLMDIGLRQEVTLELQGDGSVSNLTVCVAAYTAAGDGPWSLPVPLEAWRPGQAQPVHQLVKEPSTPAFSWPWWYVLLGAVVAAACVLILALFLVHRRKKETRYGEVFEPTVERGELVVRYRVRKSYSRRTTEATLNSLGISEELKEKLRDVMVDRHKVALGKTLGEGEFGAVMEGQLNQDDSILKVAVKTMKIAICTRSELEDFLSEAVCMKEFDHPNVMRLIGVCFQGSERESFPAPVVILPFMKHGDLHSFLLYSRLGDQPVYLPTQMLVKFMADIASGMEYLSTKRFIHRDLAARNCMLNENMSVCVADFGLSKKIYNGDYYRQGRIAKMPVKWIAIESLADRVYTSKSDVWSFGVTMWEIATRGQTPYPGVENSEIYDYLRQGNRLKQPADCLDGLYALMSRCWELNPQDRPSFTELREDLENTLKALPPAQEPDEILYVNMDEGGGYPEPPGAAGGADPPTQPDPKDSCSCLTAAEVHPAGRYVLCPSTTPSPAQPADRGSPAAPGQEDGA

Assays:
[1] = target: human AXL on the surface of tumor cells (human) (UniProt P30530); assay: FACS on NCI-H1299 cells
[2] = target: human AXL on the surface of tumor cells (human) (UniProt P30530); assay: FACS on MDA-MB-231 cells
[3] = target: extracellular domain of human AXL protein (AXL-ECD) (human) (UniProt P30530); assay: ELISA, plate-coated AXL-ECD
[4] = target: human AXL on the surface of tumor cells (human) (UniProt P30530); assay: summary of ELISA and FACS comparison with AXL107

binding [1]: binds
binding [2]: binds
binding [3]: binds
binding [4]: binds
B1: mAb005c (antibody, V domains shown)
VH: QVQLQQSGPELVKPGASVKISCKASGYSFTSYYIHWVQQRPGQGLEWIGWIYPGSDNTKYNEKFKDKATLTADTSSGTAYMQLSSLTSDDSAVFYCARNYYDYDGGTWFPYWGQGTLVTVSA
VL: DIQMTQTTSSLSASLGDRVTISCRASQDINYYLNWYQQKPDGTVKLLIYYTSRLHSRVPSRFSGSGSGTDYSLTISNLEQEDIATYFCQQGNTLPWTFGGGTKLEIK

binding [1]: binds
binding [2]: binds
binding [3]: binds
B2: mAb001c (antibody, V domains shown)
VH: AVQLQESGPSLVKPSQTLSLTCSVTGDSITSGYWSWIRKFPGNKLESMGYMTYSGATYYNPSLKSRISITRDTSKNQYYLQLNSVTPEDTATYYCARGGNSYFFDYWGQGTTLTVSS
VL: DIQMTQSPASLSVSVGETVTITCRASENIYSNLAWYQLKQGKSPHLLVYAATNLADGVPSRFSGSGSGTQYSLKIISLQSEDFGTYYCQHFWGTPLTFGAGTKLELK
